## Primary screen of a compound library

Amino acid sequences for entries named in this document (tags omitted). Residues count along the entry.
UniProt I6X8D2, whole entry: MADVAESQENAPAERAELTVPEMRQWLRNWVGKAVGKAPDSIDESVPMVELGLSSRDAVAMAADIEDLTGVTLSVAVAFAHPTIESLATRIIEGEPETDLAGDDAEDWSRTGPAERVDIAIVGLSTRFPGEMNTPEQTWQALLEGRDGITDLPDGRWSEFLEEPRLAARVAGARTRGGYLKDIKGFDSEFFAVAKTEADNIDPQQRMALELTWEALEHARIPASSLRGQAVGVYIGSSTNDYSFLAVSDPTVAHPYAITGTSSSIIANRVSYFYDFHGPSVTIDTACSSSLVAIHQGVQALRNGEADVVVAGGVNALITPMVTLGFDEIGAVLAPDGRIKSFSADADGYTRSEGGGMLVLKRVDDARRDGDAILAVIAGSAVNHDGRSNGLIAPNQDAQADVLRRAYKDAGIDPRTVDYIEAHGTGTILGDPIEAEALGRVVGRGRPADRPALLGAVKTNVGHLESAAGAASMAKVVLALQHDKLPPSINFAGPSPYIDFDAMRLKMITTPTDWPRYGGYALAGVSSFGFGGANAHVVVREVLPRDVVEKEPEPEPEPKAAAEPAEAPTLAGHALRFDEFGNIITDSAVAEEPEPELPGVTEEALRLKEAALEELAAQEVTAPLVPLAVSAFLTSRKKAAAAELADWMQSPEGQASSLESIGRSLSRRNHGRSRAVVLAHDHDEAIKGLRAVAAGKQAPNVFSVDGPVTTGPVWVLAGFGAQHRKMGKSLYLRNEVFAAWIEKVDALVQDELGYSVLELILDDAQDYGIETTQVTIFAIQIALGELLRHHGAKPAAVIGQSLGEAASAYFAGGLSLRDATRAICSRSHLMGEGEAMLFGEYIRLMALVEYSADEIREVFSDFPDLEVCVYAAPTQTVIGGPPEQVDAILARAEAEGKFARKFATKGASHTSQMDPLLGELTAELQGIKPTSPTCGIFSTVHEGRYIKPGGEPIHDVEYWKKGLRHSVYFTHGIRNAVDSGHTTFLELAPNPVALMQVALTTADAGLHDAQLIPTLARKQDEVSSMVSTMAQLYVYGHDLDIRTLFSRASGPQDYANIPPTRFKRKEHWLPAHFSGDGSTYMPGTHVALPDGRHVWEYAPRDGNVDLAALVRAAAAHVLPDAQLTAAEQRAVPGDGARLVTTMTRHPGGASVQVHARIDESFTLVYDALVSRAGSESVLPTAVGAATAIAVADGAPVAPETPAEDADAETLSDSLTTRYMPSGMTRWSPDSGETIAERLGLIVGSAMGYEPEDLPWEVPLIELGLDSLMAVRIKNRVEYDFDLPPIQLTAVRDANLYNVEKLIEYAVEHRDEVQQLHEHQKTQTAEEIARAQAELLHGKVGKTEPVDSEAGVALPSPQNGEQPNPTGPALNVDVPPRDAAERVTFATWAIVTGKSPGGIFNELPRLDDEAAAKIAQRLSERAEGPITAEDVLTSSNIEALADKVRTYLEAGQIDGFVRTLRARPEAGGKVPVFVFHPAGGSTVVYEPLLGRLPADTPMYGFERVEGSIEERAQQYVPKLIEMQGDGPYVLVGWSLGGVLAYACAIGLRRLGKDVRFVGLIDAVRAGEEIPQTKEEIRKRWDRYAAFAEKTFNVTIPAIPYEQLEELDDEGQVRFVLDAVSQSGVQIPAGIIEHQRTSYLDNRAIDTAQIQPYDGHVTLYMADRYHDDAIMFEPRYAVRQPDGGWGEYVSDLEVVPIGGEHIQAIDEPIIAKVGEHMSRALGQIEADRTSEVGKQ
UniProt P9WNZ1, whole entry: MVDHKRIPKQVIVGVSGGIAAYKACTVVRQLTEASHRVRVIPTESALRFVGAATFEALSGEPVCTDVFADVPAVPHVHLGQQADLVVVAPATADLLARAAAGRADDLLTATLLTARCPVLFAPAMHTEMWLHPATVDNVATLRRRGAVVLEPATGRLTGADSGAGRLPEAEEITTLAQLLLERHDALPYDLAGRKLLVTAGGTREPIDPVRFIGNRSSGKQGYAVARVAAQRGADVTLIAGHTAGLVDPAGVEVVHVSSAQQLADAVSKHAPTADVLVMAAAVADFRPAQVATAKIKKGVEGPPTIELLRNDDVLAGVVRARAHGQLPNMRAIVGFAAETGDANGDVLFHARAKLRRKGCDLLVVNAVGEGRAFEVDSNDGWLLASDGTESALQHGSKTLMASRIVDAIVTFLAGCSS
UniProt P9WFT3, whole entry: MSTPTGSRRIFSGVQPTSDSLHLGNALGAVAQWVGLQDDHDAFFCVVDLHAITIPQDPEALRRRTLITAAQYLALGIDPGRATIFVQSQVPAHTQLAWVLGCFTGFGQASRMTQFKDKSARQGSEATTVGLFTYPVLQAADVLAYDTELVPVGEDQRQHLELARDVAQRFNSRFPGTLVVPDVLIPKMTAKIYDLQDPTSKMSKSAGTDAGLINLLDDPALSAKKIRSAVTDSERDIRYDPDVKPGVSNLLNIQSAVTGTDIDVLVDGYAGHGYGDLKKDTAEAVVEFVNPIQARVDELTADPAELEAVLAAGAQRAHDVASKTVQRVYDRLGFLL
UniProt A4I591, 1-473: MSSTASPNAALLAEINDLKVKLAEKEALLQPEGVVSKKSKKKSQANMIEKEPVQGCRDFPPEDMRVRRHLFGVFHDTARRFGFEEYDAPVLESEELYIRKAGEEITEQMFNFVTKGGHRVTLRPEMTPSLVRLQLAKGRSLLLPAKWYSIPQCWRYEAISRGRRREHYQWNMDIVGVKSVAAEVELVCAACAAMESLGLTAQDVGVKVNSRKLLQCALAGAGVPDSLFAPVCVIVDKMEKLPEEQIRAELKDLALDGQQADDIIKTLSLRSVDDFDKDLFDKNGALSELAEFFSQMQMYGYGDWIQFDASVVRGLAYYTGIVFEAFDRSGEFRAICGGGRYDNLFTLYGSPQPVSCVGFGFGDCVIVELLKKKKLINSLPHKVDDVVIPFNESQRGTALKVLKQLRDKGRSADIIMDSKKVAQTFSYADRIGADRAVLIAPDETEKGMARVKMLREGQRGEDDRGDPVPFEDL
UniProt Q4DA54, 1-478: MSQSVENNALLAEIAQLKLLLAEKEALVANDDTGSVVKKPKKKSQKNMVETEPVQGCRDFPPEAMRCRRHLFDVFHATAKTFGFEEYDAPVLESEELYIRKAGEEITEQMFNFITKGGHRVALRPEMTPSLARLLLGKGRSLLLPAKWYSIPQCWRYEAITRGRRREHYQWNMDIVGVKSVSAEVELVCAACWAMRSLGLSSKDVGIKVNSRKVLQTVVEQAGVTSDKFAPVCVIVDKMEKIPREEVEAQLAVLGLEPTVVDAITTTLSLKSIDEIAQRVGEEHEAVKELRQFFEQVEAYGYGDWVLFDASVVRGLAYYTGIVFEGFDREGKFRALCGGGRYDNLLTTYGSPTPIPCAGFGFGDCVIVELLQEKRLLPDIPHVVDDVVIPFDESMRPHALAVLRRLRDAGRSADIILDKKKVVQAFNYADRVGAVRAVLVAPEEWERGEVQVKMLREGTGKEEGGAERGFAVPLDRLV

From ChEMBL document CHEMBL3988442, “University of Dundee, Small-Polar-MMV Screening Library” (2021).

Pks13 thioesterase: 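Enzyme assay of the thioesterase domain of polyketide synthase 13; the read-out is not stated. Target: Polyketide synthase Pks13, Mycobacterium tuberculosis (UniProt I6X8D2). Concentration: 30 µM. Higher reads as stronger inhibition (inferred from which compounds were picked for retests). Of about 67,000 compounds tested this way, about 300 (0.46%) reached 50% or more in at least one test.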
Toxoplasma: 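Assay of Toxoplasma gondii numbers, read through their beta-galactosidase reporter with a colour substrate. Compounds at 10 µM. Higher reads as fewer parasites (inferred from which compounds were picked for retests). Size under these conditions: about 67,000 compounds, about 260 of them at 50% or above in at least one test.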
CoaBC: 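Enzyme assay of CoaBC with a phosphate dye (Biomol Green) read at 650 nm. Target: Coenzyme A biosynthesis protein CoaBC, Mycobacterium tuberculosis (UniProt P9WNZ1). Tested at 30 µM. Direction is inferred from only a few compounds that gave an IC50; most scored high, so higher reads as stronger inhibition. Most strong results did not repeat in a second test. About 67,000 compounds were tested under these conditions; 0.06% (about 40) showed 50% or more at least once.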
MtTrpRS: 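Enzyme assay of tryptophanyl-tRNA synthetase; the read-out is not stated. Target: Tryptophan-tRNA ligase, Mycobacterium tuberculosis (UniProt P9WFT3). Tested at 10 µM. Higher most likely means stronger inhibition; the record gives no direction and few retests gave an IC50. Size under these conditions: about 65,000 compounds, about 64 of them at 50% or above in at least one test.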
LiHisRS: 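Enzyme assay of histidyl-tRNA synthetase; the read-out is not stated. Target: Histidine-tRNA ligase, Leishmania infantum (UniProt A4I591). Compounds at 30 µM. The record gives no direction; compounds that gave an IC50 in retests scored well above the rest, so higher reads as stronger inhibition. The assay is labelled LdHisRS but filed under L. infantum. Of about 69,000 compounds tested this way, about 410 (0.6%) reached 50% or more in at least one test.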
TcHisRS: 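Enzyme assay of histidyl-tRNA synthetase; the read-out is not stated. Target: Histidine-tRNA ligase, Trypanosoma cruzi CL Brener (UniProt Q4DA54). Tested at 30 µM. The record gives no direction; compounds that gave an IC50 in retests scored well above the rest, so higher reads as stronger inhibition. Size under these conditions: about 69,000 compounds, about 31 of them at 50% or above in at least one test.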

Results are given as percent effect.
The record does not define 0% and 100%; most values in the screen are far below 50% and negative numbers occur (in some assays of this library far below -100).
Compounds were drawn at random from those tested, without regard to their results.
A dash means the value is not listed here; it may have been measured.

SMILES,Pks13 thioesterase,Toxoplasma,CoaBC,MtTrpRS,LiHisRS,TcHisRS
O=C(O)C(F)(F)F.O=C1N(CC2CC2)CCC12CCN(c1ncccn1)CC2,-,4.752%,-,-,-,-
Cc1cc(C2CCCN2Cc2ccn(C)c(=O)c2)on1 (centres undefined),-7.393%,-7.355%,2.632%,0.6685%,21.3%,13.78%
Cc1cc2c(=O)n(CC(=O)N3CCn4cccc4C3C(C)C)cnc2s1 (centres undefined),15.83%,16.95%,-0.7398%,-4.354%,-40.85%,3.03%
Cc1cc(C(=O)N(C)Cc2ccn[nH]2)c(NC(=O)C(C)(C)C)s1,-10.67%,-3.04%,3.606%,1.484%,12.5%,3.797%
Cc1ccc(Br)cc1NC(=O)NC1CCC2(C1)OCCO2 (centres undefined),-19.11%,10.07%,-29.95%,0.89%,-3.371%,3.627%
Cc1cc(C)n(CC2CCCCN2CC(=O)NC2CCOCC2)n1 (centres undefined),-22.77%,11.62%,-0.4545%,15.44%,-5.357%,1.153%
Cc1cccnc1CNC(=O)N(CCCO)C1CCc2ccccc21 (centres undefined),-27.45%,-38.97%,5.909%,2.466%,14.29%,4.035%
CCC(CO)NCc1ccc(-c2ccc(Br)cc2)o1 (centres undefined),-3.236%,-,5.369%,1.387%,19.54%,12.37%
Cn1c(CO)nnc1SCc1c(F)cccc1Br,8.915%,14.95%,0.7299%,2.251%,15.56%,3.03%
CNC(=O)c1cn2cc(-c3cccc(Cl)c3)n(CC3CC3)c(=O)c2n1,-35.53%,-23.81%,9.002%,-3.123%,-4.444%,11.52%
Cc1csc(CN(C)CCCOc2cccc(C#N)c2)n1,-5.484%,-2.135%,6.731%,-6.279%,4.167%,-1.266%
COC1COC2(CCN(Cc3cccc(C#N)c3)CC2)C1 (centres undefined),-8.821%,-,4.762%,0.6916%,17.95%,7.317%
Cc1ncc(CNC(CCO)C2CCCCC2)s1 (centres undefined),8.201%,-49.13%,-1.46%,-6.899%,-8.889%,0.6061%
CC(O)(CN1CCC2(CC1)OCCO2)c1cccc(C(F)(F)F)c1 (centres undefined),-7.717%,-5.784%,3.426%,6.97%,18.75%,-1.901%
O=C(O)C(F)(F)F.[H][C@]12CCN(Cc3cccc(C#N)c3)C[C@@]1([H])OCCN(c1ncccn1)C2,-,12.5%,-,-,-,-
O=C1CN(C(=O)c2cc(Cl)ccc2F)c2ccncc2N1,-11.88%,-10.19%,2.445%,-3.367%,11.29%,5.155%
CC(Cn1ccnc1)NCc1n[nH]c2c1CCC2 (centres undefined),-2.373%,17.53%,-0.2457%,-1.27%,16.67%,5.882%
COCC(=O)Nc1cc(Br)cnc1OCC(F)(F)F,-7.863%,-8.764%,4.032%,-2.058%,10.53%,10.92%
[H][C@]12CC[C@]([H])(CN(Cc3cscn3)C1)N(C(=O)c1cccc(COC)n1)C2,-,-13.85%,-,-,-,-
O=C(O)C(F)(F)F.[H][C@@]12CCCO[C@]1([H])[C@H](NC(=O)c1cnoc1C)CN(Cc1ccco1)C2,-,-16.17%,-,-,-,-
Cn1ccnc1CN1CCN(CCOc2ccccc2C#N)CC1,-,-0.3139%,2.838%,0.4873%,10.61%,4.545%
CCc1cnc(NCCCN2CCC(O)CC2)nc1,7.592%,3.508%,-1.486%,-2.261%,7.965%,7.2%
Cc1[nH]c2c(F)cccc2c1CC(=O)NCCCNc1cccnc1,-31.75%,2.397%,-,2.27%,19.17%,6.579%
[H][C@]12CC[C@]([H])(CN(c3nccc(NC)n3)C1)N(CCOC)C2=O,-,-13.36%,-,-,-,-
[H][C@]12CC[C@@]3(N=C(C)N(CC4CC4)C3=O)[C@@]1([H])CN(C(=O)NC(C)C)C2,-,-4.68%,-,-,-,-
O=C(Cc1ccsc1)N1CCCCC1c1ccn2ccnc2n1 (centres undefined),-19.38%,25.11%,-0.9685%,-,-4.124%,0%
Cc1nc(-c2ccccc2)n(CC(=O)NC(C)C)n1,-5.514%,13.66%,6.636%,-7.627%,9.649%,2.035%
Cc1nc2c(c(NCCCN3CCOCC3)n1)CCN(C)C2,-2.648%,-36.79%,11.56%,12.16%,4.348%,9.091%
Cc1cc2c(o1)CC(C)(C)CC2NC(=O)CNC(=O)C1CC1 (centres undefined),-41.05%,2.567%,-,0.7224%,25.71%,2.597%
O=C(O)C1(n2cccn2)CCN(Cc2nc(-c3ccccc3)no2)CC1,-13.23%,11.14%,15.33%,1.511%,8.571%,0%
CCOCC1CN(S(=O)(=O)N(C)C)Cc2cnn(CC)c21 (centres undefined),-,-,4.126%,-2.06%,-2.703%,1.493%
O=C(c1cccc(-n2cccn2)c1)N1CCCOC(Cn2cccn2)C1 (centres undefined),1.699%,9.849%,9.859%,14.06%,25.64%,-1.685%
CSCC(C)(O)CNS(=O)(=O)Cc1ccc(F)cc1 (centres undefined),-1.403%,17.51%,3.944%,-1.633%,12.2%,7.212%
OCC1CCCN1c1cc(NCCc2c[nH]c3ccccc23)ncn1 (centres undefined),-28.34%,-5.145%,-4.478%,41.98%,17.31%,4.959%
CCn1nc(C)c(CNC(=O)c2cn(CCC3CCCCN3)nn2)c1C (centres undefined),-16.93%,-0.4405%,1.339%,0.8881%,24.27%,2.905%
CCCN(CCC)S(=O)(=O)N(C)Cc1ccncc1,-1.991%,2.521%,-2.823%,1.574%,8.772%,-26.05%
O=C(C1CCCCC1)N1CCC(c2n[nH]c3nccnc23)CC1,-1.05%,-29.62%,3.155%,-,7.246%,8.791%
Cc1cnc(N2CCCC3(COCCN(c4nccs4)C3)C2)nc1 (centres undefined),-20.87%,13.34%,3.941%,-0.8994%,8%,10.31%
Cc1ccsc1-c1nccn1CCN(C)S(C)(=O)=O,-30.54%,-5.07%,-5.882%,-4.631%,11.11%,1.111%
CCOCCCNC(=O)CCCC(=O)n1nc(C)c2ccccc21,-3.92%,7.585%,3.008%,-1.467%,6.742%,5.528%
c1csc(N2CCCN(Cc3nc(C4CC4)no3)CC2)n1,-1.349%,1.376%,3.373%,3.277%,19.18%,0.7634%
CCCN1CCN(C(=O)c2cncnc2C)[C@H]2CS(=O)(=O)C[C@H]21,16.83%,-,4.365%,4.131%,27.78%,2.041%
COC(=O)c1cccc(CNC(=O)c2cc(C(C)C)n(C)n2)c1,-16.67%,-2.382%,3.676%,1.852%,17.78%,8.333%
CC(CNS(N)(=O)=O)c1ccc(F)c(F)c1 (centres undefined),0.9018%,7.493%,1.621%,-0.7498%,0%,-20.2%
C=C(C)CN1CCCC1c1nc(Cc2ccc(F)cc2)no1 (centres undefined),26.64%,3.898%,-14.87%,8.022%,-3.896%,5.419%
Cc1ccc(C(=O)N2CCn3c(COCC4CC4)cnc3C2C)nc1.O=C(O)C(F)(F)F (centres undefined),-,5.41%,-,-,-,-
CN(C)CCN1CCC2(CCN(C(=O)c3ccncc3)CC2)C1=O,-6.54%,-,4.471%,0.1658%,19.27%,5.288%
N#CCCn1cnc2c(Br)cccc2c1=O,-35.23%,-0.1147%,6.242%,-0.9202%,9.326%,3.867%
O=C1CCC(C(=O)N2CCOC(Cc3ccc(F)cc3)C2)=NN1 (centres undefined),-31.97%,1.406%,1.22%,3.905%,6.667%,0%
CC(=O)Nc1nc(C(=O)NCCOc2ccccc2)cs1,-24.12%,-8.172%,4.156%,-1.801%,11.29%,0%
FC(F)(F)CN1CCC(CNc2nc3ccccc3o2)C1 (centres undefined),-13.8%,-4.875%,-5.242%,-16.53%,28.95%,0.5587%
Nc1nnnn1NCc1ccccc1C(F)(F)F,6.257%,-49.61%,5.102%,0.8911%,8.642%,4.911%

For reference, 3 entries once more:

SMILES	Pks13 thioesterase	Toxoplasma	CoaBC	MtTrpRS	LiHisRS	TcHisRS
CCCN(CCC)S(=O)(=O)N(C)Cc1ccncc1	-1.991%	2.521%	-2.823%	1.574%	8.772%	-26.05%
C=C(C)CN1CCCC1c1nc(Cc2ccc(F)cc2)no1 (centres undefined)	26.64%	3.898%	-14.87%	8.022%	-3.896%	5.419%
CC(Cn1ccnc1)NCc1n[nH]c2c1CCC2 (centres undefined)	-2.373%	17.53%	-0.2457%	-1.27%	16.67%	5.882%